In publication doi:10.1101/2022.05.04.490582:
These are yes or no findings as the source states them, for the method shown. Binding seen in cells or lysates may run through a third protein. Some binding calls cover weakened binding; strength is not graded here.

Protein sequences, listed by entry. Tags and fused reporters are not part of them.
UniProt Q9QXL1: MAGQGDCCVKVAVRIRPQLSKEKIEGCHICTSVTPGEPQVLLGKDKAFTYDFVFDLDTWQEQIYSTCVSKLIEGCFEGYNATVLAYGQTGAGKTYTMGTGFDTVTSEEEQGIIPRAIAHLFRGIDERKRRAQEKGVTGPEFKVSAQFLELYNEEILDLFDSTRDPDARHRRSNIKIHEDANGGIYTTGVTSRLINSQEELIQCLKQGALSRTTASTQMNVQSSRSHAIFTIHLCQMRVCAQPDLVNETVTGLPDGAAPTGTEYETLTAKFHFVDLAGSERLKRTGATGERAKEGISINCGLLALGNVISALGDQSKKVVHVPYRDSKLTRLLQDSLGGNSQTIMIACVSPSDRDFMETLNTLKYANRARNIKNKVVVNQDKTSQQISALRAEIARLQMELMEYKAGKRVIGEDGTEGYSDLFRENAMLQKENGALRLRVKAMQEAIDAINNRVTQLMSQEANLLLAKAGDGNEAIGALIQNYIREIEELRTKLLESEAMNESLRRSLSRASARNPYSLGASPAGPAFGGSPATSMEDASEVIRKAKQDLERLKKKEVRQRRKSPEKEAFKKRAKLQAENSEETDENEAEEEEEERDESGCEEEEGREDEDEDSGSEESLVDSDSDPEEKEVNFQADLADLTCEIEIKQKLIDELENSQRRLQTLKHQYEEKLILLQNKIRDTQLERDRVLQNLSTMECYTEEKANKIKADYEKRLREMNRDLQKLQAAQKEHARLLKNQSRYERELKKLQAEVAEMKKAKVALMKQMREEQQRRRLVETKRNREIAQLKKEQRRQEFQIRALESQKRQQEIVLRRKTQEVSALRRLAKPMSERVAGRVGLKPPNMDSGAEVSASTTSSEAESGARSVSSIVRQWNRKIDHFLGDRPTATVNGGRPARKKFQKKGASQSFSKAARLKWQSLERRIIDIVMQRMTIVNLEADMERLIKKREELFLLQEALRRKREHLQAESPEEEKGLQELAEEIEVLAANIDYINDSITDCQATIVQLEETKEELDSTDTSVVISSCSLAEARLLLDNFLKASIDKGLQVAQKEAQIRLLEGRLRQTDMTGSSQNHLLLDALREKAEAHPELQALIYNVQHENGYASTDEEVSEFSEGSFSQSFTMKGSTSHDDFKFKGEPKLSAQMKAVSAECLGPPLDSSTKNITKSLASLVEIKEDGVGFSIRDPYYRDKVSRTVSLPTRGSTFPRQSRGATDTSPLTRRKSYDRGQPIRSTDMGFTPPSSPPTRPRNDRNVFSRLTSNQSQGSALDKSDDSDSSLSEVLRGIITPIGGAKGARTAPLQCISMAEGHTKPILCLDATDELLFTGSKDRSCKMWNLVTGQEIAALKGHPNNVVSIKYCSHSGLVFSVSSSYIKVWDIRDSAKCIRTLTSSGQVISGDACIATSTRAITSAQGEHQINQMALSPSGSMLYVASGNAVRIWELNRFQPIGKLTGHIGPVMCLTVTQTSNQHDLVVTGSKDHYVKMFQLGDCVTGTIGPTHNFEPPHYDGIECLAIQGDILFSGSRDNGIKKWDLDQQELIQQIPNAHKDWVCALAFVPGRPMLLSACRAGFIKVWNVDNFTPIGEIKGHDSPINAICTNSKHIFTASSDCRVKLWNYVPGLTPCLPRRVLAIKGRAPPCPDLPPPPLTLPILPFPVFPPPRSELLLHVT
UniProt Q9QXL2: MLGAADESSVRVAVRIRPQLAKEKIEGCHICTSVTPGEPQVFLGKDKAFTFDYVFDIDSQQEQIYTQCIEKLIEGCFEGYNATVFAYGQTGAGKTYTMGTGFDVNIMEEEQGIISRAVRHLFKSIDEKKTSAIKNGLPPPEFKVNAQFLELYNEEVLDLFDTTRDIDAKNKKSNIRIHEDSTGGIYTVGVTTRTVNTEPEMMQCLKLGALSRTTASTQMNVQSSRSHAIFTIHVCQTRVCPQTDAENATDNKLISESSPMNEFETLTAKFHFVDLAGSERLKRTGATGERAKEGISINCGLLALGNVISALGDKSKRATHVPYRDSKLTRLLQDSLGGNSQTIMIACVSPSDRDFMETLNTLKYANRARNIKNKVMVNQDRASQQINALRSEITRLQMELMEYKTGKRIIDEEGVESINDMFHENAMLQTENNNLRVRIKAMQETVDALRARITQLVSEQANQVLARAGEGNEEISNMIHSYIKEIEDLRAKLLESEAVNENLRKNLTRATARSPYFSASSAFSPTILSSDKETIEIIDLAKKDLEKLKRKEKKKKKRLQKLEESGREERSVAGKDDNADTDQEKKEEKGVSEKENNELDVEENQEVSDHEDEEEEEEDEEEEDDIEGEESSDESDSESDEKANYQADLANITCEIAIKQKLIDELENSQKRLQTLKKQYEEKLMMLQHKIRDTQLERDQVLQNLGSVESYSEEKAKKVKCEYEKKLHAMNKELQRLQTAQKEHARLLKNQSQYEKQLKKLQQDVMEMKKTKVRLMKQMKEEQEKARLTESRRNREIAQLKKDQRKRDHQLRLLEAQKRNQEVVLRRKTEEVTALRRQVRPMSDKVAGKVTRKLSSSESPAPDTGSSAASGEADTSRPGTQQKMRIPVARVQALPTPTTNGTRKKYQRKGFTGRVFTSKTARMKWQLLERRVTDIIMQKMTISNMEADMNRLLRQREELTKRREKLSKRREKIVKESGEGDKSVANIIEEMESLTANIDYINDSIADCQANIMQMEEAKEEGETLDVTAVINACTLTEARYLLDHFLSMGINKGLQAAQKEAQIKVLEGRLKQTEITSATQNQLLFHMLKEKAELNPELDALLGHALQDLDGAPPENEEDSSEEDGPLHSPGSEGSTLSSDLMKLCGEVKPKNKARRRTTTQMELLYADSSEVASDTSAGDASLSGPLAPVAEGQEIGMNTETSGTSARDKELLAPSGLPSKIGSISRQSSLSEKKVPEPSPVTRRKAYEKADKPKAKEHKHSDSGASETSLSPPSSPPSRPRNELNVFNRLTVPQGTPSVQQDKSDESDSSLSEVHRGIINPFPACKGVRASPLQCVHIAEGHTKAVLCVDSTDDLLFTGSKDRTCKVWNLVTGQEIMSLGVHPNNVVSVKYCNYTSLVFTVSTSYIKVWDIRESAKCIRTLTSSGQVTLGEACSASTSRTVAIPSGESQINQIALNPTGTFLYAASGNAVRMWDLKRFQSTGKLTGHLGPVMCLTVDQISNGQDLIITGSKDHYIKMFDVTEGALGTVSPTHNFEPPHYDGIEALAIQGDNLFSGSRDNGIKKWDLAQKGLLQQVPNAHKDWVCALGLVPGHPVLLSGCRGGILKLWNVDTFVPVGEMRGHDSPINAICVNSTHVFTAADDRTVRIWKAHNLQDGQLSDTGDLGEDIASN

T1: guanylate kinase-associated protein (GKAP) (mouse (endogenous in brain lysate)) (UniProt Q9D415)
T1 sequence: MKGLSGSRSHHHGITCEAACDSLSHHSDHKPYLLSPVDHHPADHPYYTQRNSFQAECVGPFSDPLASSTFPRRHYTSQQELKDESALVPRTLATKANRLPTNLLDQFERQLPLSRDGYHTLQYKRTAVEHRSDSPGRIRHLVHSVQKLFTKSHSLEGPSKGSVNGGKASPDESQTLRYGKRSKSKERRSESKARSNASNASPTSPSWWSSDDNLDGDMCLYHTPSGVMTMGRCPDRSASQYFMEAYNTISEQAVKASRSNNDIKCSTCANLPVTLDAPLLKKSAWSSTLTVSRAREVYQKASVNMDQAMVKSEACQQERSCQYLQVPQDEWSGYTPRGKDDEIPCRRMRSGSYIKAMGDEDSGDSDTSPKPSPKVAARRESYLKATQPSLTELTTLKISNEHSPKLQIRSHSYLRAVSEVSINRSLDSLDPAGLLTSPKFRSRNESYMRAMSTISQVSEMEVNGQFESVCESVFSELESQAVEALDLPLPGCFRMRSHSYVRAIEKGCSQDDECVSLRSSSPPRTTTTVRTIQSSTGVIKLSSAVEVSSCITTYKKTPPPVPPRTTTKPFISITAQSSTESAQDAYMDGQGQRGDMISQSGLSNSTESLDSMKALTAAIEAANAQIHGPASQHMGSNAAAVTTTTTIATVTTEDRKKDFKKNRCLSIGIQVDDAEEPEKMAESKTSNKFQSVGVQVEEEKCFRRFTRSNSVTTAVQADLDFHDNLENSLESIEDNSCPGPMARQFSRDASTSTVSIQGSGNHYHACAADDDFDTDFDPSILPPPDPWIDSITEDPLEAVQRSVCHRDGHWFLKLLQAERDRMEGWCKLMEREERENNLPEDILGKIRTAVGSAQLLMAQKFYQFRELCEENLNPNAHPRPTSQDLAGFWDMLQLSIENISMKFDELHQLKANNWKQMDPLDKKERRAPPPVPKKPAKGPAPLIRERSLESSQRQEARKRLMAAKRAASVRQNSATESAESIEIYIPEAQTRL

B1: Homer-1 (protein, UniProt Q9Z2Y3 1-366)
chain: MGEQPIFSTRAHVFQIDPNTKKNWVPTSKHAVTVSYFYDSTRNVYRIISLDGSKAIINSTITPNMTFTKTSQKFGQWADSRANTVYGLGFSSEHHLSKFAEKFQEFKEAARLAKEKSQEKMELTSTPSQESAGGDLQSPLTPESINGTDDERTPDVTQNSEPRAEPTQNALPFPHSAGDRTQALSHASSAISKHWEAELATLKGNNAKLTAALLESTANVKQWKQQLAAYQEEAERLHKRVTELECVSSQANAVHSHKTELNQTVQELEETLKVKEEEIERLKQEIDNARELQEQRDSLTQKLQEVEIRNKDLEGQLSDLEQRLEKSQNEQEAFRSNLKTLLEILDGKIFELTELRDNLAKLLECS
B2: guanylate kinase-associated protein (GKAP) (protein, UniProt Q9D415 1-992)
chain: T1 sequence

Legend:
[1] = target: T1, guanylate kinase-associated protein (GKAP) (mouse (endogenous in brain lysate)); experiment: co-IP
[2] = target: kinesin motor protein KIF21B (mouse (endogenous in hippocampal and brain lysate)) (UniProt Q9QXL1); experiment: co-IP

| Molecule | binding [1] | binding [2] |
| --- | --- | --- |
| kinesin motor KIF21A (from UniProt Q9QXL2 1-1672) | no binding | – |
| kinesin motor protein KIF21B (from UniProt Q9QXL1 1-1668) | binds | – |
| B1 | binds | – |
| B2 | – | binds |
